No constants are given. Whether binding was seen depends on the method and setting. Some results given as binding are weak or reduced against the parent protein; the word gives no strength.

Sequences of proteins named here, by UniProt entry; tags and fusion partners are left off. A change or cut given only in a name is not applied to a line headed by its entry. Residues count along the entry.
UniProt Q92542, residues 34-709: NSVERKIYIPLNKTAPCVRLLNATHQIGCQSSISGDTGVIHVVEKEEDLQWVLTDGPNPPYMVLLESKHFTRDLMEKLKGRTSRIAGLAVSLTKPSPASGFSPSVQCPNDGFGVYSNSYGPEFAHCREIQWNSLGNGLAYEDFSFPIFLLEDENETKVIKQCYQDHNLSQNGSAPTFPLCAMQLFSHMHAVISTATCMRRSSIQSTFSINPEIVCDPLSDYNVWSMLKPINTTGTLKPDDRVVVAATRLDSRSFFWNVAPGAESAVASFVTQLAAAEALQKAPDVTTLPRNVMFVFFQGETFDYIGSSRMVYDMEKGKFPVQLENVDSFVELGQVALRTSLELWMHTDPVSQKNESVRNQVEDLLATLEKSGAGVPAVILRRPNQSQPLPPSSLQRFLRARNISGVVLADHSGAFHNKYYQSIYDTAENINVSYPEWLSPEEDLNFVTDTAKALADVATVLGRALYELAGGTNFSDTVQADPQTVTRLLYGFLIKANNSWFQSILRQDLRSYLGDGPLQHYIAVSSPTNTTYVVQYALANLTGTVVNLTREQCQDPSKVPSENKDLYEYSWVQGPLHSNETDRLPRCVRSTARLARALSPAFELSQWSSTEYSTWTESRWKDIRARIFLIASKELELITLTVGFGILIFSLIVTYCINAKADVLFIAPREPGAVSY
UniProt Q96BI3: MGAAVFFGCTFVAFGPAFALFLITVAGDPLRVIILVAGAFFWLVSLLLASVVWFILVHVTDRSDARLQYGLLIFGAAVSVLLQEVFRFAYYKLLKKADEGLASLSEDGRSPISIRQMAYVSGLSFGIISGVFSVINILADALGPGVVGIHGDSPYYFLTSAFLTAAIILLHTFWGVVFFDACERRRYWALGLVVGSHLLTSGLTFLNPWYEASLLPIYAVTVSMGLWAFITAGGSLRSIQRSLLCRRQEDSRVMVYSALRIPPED

Test [1] deals with endogenous nicastrin of human HEK293 cells (human) (UniProt Q92542). The test can be described thus: Talon cobalt-affinity isolation of V5/6xHis-tagged hPSF from 1% CHAPSO lysates of stable HEK293 cells, Western blot for nicastrin.
Test [2] has the same target. The test is described as follows: Talon metal-affinity isolation of hPSF (V5 tag and 6xHis) from HEK293 lysates, Western blot.

Take “human presenilin stabilization factor (PSF) with C-terminal V5 and poly-histidine (6xHis) tags (from UniProt Q96BI3 1-242)”: the binding entry in test [1] and in test [2] was “binds” in each case.

The record behind these values is patent US20050095604A1 (published 2005).
